Hit rate of the full screen: of about 52,000 sequences, about 210 (0.4%) were called active.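 The calls were made as follows: active = gene whose silencing raises cell survival under the drug, median off-target-corrected z-score across its silencing RNAs 2 or more; inactive = the rest.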 This is one part of the list.
Experiment: Resistance to Poly (ADP-Ribose) Polymerase inhibitor: Gene Identification via Genome-wide siRNA Screen
Conditions: mouse BRCA2 R2336H ES cells, olaparib, CellTiter-Glo viability; active compounds read high
Procedure, shortened: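 Genome-wide siRNA screen (3 siRNAs/gene, 20 nM) in mouse ES cells carrying hypomorphic BRCA2 R2336H; olaparib 500 nM added 48 h post-transfection, CellTiter-Glo viability 72 h later. Normalized to plate-median negative control; MAD z-scores, gene median, seed-adjusted.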

| Sequence | z-score |
| --- | --- |
| AGGUCAAAAGAAGCCGGAATT against C77604 | inactive: -2.7 |
| GGACUACAGGUAUCGUGAUTT against 4732495G21Rik | inactive: -1.35 |
| GCCAACCUUCAAGGAAUAUTT against Cyp2b10 | inactive: 0.519 |
| GCGUUGAUUGUCCUCCUGATT against Dos | inactive: -2.61 |
| GGUCUAUUGAAAAAUAGGATT against Dock7 | inactive: 0.384 |
| GGCAACAGUUCACAAACCATT against Zfp263 | inactive: -0.793 |
| GCCUGAAUUUUUGAGAACUTT against A430106J12Rik | inactive: 0.0748 |
| GGCUGAAUGACUACGUGUGTT against Cldn14 | inactive: 0.117 |
| GGAAGAAAUGAUAAAUGCATT against Itgbl1 | inactive: -0.586 |
| GGGCAACCUGGUUACACAUTT against Zfp637 | inactive: 0.0231 |
| GGACUUGUUCCUGAAGACATT against D7Wsu128e | inactive: 0.164 |
| GGGAUGAAGACACGAUCAUTT against 2810007J24Rik | inactive: -0.828 |
| GGAUUGUCCACAUGGAACUTT against Ccl27 | inactive: 0.78 |
| GGCCAUGAUAGCUGUGUUUTT against Wdr6 | inactive: -0.285 |
| GGAAGUUAUUGCCAGCGAGTT against Fbxo5 | inactive: -0.562 |
| GGUGGAAAGAUCAACAGACTT against Tpst1 | inactive: 0.467 |
| GGCCUUUGCCAACAGGUCATT against Zfp27 | inactive: 1.57 |
| GGAAUCAAUGGGAUAUUUUTT against Slc2a2 | inactive: -0.625 |
| GGGCUUGAUUGUGAAAGAATT against Tlr12 | inactive: -1.42 |
| GCAAUGUGGAAAGUGUAAATT against ORF19 | inactive: -0.278 |
| GGCUUGGACAAUCUUAGUATT against AU040950 | inactive: 0.837 |
| GGAGAGGAGAUUCAGUACATT against Otc | inactive: -0.319 |
| CGUAAUGGAGACUACCGAATT against Syn1 | inactive: 0.393 |
| GGUAGAUUGCCAACAGUGCTT against Rap1a | inactive: -0.455 |
| GUAUUAUUCCGUUCCUACUTT against Olfr392 | inactive: -0.086 |
| CGAAAAACGACACGUAAAATT against Dnmt1 | inactive: 0.444 |
| GUGGAAAACAAGUGGCGGUTT against Cox7c | inactive: 3.24 |

| Sequence | z-score |
| --- | --- |
| GGCUAUUGUGCAGUUGAAGTT against Plec1 | inactive: 1.11 |
| CCCAGCUCCUCCAAAUAGUTT against 2510027J23Rik | inactive: -0.0476 |
| GGUUCUUACCAAGAUGAAGTT against 2510048L02Rik | inactive: -1.2 |
| GGUUGAUUCCAACGACAUCTT against Lcn7 | inactive: 0.672 |
| GGCUGAAGAGAGAUGAAUCTT against Nmur2 | inactive: -1.21 |
| GGUAUCCAAGAAAACCUAUTT against Tnmd | inactive: 0.474 |
| GGCAUCAAUCUCUUUGAAATT against AF366264 | inactive: 0.348 |
| CCAAAGAUGCUCCUCACCUTT against Olfr197 | inactive: -2.87 |
| GCAUCCUCCCUUCCCAAUGTT against Sh3bgr | inactive: 1.27 |
| GGCUCACAAUUGCUCUGCATT against Psg21 | inactive: 0.0986 |
| GGCCCAUCUGAGGAAGCUUTT against Magea4 | inactive: -3.03 |
| GCUACCACGAAUUUAUAGATT against Nalp9a | inactive: 0.327 |
| GGAAUUCAUCUGUGGUCUCTT against Trim50 | inactive: -1.15 |
| GGUGUAUUUUUUCACUGUUTT against Olfr339 | inactive: -0.00761 |
| GGCUUUUAGGUGUAUCAGGTT against Btg4 | inactive: -2.02 |
| GGCAUGUGUUUGAUAAGACTT against Tipin | inactive: 0.467 |
| GGAAACCACAUGCCUGAGATT against Spp2 | inactive: -2.67 |
| GGUCUCUUCUAUUUUUACATT against Agps | inactive: 1.1 |
| GGUCAUCCUUGCCAAUCUCTT against Olfr686 | inactive: 0.327 |
| GGGAGACCGGCAAAAAAAATT against Pde1b | inactive: 0.954 |
| GCUUACAAGUACAAAAAUGTT against Smarcc1 | inactive: -2.22 |
| CCCAUGGGUUUUUAAUUGATT against Ptgdr | inactive: 1.27 |
| GGAAGUAGAGAUCUCCUUATT against Btn1a1 | inactive: 0.956 |
| GGUGUCAAAUUGGUUCGCUTT against 9430023B20Rik | inactive: 1.14 |
| GCUUCAAUGACACCAGAAUTT against 6430571L13Rik | inactive: -0.617 |
| GCAGACCAGACAGUAUUACTT against Zfhx1a | inactive: -0.828 |
| GCAGAAAGAGAAUCUCCCGTT against Trp53bp2 | inactive: 0.923 |

| Sequence | z-score |
| --- | --- |
| GCGGGCUUAUAGGAAGAAGTT against Isp1 | inactive: 0.482 |
| GUGCCUUUGUGGUCUUCCUTT against AI839735 | inactive: -0.313 |
| GGCAAUUUCUAAACAGGGATT against Atp6v1f | inactive: -0.612 |
| GCUUUAUUGACACGACCCGTT against Rbm19 | inactive: 0.563 |
| GGGUCUAAAUGACUUCUCATT against 2310009E07Rik | inactive: -1.59 |
| GGUUACAUUUCGUACAAGATT against Ube2e1 | inactive: 2.15 |
| GGUCCUUAGCUGUUCAUUCTT against Styx | inactive: 0.144 |
| GGAACAAGCCCUGAAAGUCTT against Prl | inactive: -0.0493 |
| CCAUGGCACAGACAGCUAUTT against Cugbp1 | inactive: 1.08 |
| GGUUUAACCAUGGAAGAAATT against Eya3 | inactive: 0.0502 |
| GCGAAAGAAGCACGUACCATT against Kcnc4 | inactive: -1.15 |
| GGAGAACCUGAUGAAGAAGTT against Rai1 | inactive: -0.6 |
| CCCUAUGCUAUGCCUGAGUTT against Ampd3 | inactive: -1.52 |
| GGGCUAUGUACCCUAUAAUTT against Eps8l1 | inactive: -1.36 |
| GGAGUUUCUCUGAUGAUGGTT against Hist1h2ac | inactive: -2.09 |
| CCAGUAUCACUGGAUCAUATT against Sec22l3 | inactive: -0.888 |
| GGGAUAUCCGCCAUAAUUUTT against Pigm | inactive: 0.664 |
| GGAUGUUGGUACUUUUUGATT against 2310058A11Rik | inactive: -0.446 |
| GGCAAGUCUAAAAUACAUUTT against Siat7d | inactive: -1.51 |
| GGGAGGUGUGGUAAACUGUTT against D1Ucla4 | inactive: -0.278 |
| GGUUACCUAUUGGAUGACATT against Muc19 | inactive: -0.928 |
| UUCAAAUAAACUCUCUGCUTT against LOC432602 | inactive: -0.426 |
| GGCUGUUUUUGCCGGUAUCTT against 2310042E22Rik | inactive: -1.03 |
| GGAAAUGUGUACAAGAACCTT against Ms4a4b | inactive: 0.646 |
| GCAAGAUGCAGGAUUGUAATT against Gprc5d | inactive: -0.923 |
| GGUAGACCUAGAACAGCACTT against Ttyh2 | inactive: -0.44 |
| GGAGAAUGUAGAUGAAGCUTT against Dhrs2 | inactive: 0.333 |

Single values from the entries so far:
Entry for GGUGUAUUUUUUCACUGUUTT against Olfr339 under z-score: inactive: -0.00761
Entry for GGUUACCUAUUGGAUGACATT against Muc19 under z-score: inactive: -0.928

Additional records follow:

| Sequence | z-score |
| --- | --- |
| GGUCCAUUGCUAAAGACUGTT against Tcf19 | inactive: 0.0826 |
| GGGUAUUGCUGGACAACGUTT against Col1a1 | inactive: -0.227 |
| GGCUAGUGUUUUCAACAAUTT against Atp10d | inactive: 0.136 |
| GGCAUCCUGUCUGUUAUCUTT against Ptdss1 | inactive: 0.845 |
| GCCUACAAGCAGGUACUAUTT against Olfr30 | inactive: -2.25 |
| GCGAUAUUAACUAUGGAGATT against 9630018L10Rik | inactive: -0.375 |
| GGCUGUGCGUGUUACAAAATT against Keo4 | inactive: -0.334 |
| GGCUGUCUCCCUAGUGAAATT against Shrm | inactive: 0.74 |
| GGAGUGAUUCAGUGAAAACTT against 1700012F17Rik | inactive: 0.379 |
| GCGAUAUAAGAGAGACAAGTT against 9030407H20Rik | inactive: 1.09 |
| GGUGGAAUGAGGAAACAACTT against Cck | inactive: -0.755 |
| GCAAAGGGUGAUUCUUACCTT against 1700027A23Rik | inactive: -0.421 |
| GGUGAUGAUGUCAUACAAATT against Cav1 | inactive: 0.0573 |
| GCUUAAAUCCGACGAGAAGTT against Rrm2b | inactive: -0.0248 |
| GAAGAUGGUAGAGUCUACATT against Hcst | inactive: -1.68 |
| GCUGCAGAGAAGAGCAAUGTT against Olfr872 | inactive: 4.21 |
| GGGCUAGAUGAAUUUUUGATT against Agtrl1 | inactive: 0.251 |
| GGAUUUCUCCAUGAUGAGATT against 1700036D21Rik | inactive: 0.365 |
| GGAGGAACUGAUCUUUCGATT against Gdnf | inactive: 0.0743 |
| CAGGAUUCCUUGGACAUACTT against Olfr477 | inactive: -1.99 |
| CGUAUUGAUGUUGGGUAGCTT against Oas1c | inactive: 0.85 |
| GGCAGAUCUAUUGACAAACTT against Nts | inactive: 0.0721 |
| CCUCAUUGUACCUUGCUGATT against Surf6 | inactive: 0.98 |
| GGAGUUUUACGCACUCUGUTT against Ixl | inactive: 1.24 |

28 entries from above, as tab-separated lines.
Sequence	z-score
GGCUGUUUUUGCCGGUAUCTT against 2310042E22Rik	inactive: -1.03
GGAAAUGUGUACAAGAACCTT against Ms4a4b	inactive: 0.646
GCAAGAUGCAGGAUUGUAATT against Gprc5d	inactive: -0.923
GGUAGACCUAGAACAGCACTT against Ttyh2	inactive: -0.44
GGAGAAUGUAGAUGAAGCUTT against Dhrs2	inactive: 0.333
GGUCCAUUGCUAAAGACUGTT against Tcf19	inactive: 0.0826
GGGUAUUGCUGGACAACGUTT against Col1a1	inactive: -0.227
GGCUAGUGUUUUCAACAAUTT against Atp10d	inactive: 0.136
GGCAUCCUGUCUGUUAUCUTT against Ptdss1	inactive: 0.845
GCCUACAAGCAGGUACUAUTT against Olfr30	inactive: -2.25
GCGAUAUUAACUAUGGAGATT against 9630018L10Rik	inactive: -0.375
GGCUGUGCGUGUUACAAAATT against Keo4	inactive: -0.334
GGCUGUCUCCCUAGUGAAATT against Shrm	inactive: 0.74
GGAGUGAUUCAGUGAAAACTT against 1700012F17Rik	inactive: 0.379
GCGAUAUAAGAGAGACAAGTT against 9030407H20Rik	inactive: 1.09
GGUGGAAUGAGGAAACAACTT against Cck	inactive: -0.755
GCAAAGGGUGAUUCUUACCTT against 1700027A23Rik	inactive: -0.421
GGUGAUGAUGUCAUACAAATT against Cav1	inactive: 0.0573
GCUUAAAUCCGACGAGAAGTT against Rrm2b	inactive: -0.0248
GAAGAUGGUAGAGUCUACATT against Hcst	inactive: -1.68
GCUGCAGAGAAGAGCAAUGTT against Olfr872	inactive: 4.21
GGGCUAGAUGAAUUUUUGATT against Agtrl1	inactive: 0.251
GGAUUUCUCCAUGAUGAGATT against 1700036D21Rik	inactive: 0.365
GGAGGAACUGAUCUUUCGATT against Gdnf	inactive: 0.0743
CAGGAUUCCUUGGACAUACTT against Olfr477	inactive: -1.99
CGUAUUGAUGUUGGGUAGCTT against Oas1c	inactive: 0.85
GGCAGAUCUAUUGACAAACTT against Nts	inactive: 0.0721
CCUCAUUGUACCUUGCUGATT against Surf6	inactive: 0.98

Source: PubChem BioAssay AID1347423 (Functional Genomics Laboratory (NCATS/FGL), 2020)
